According to PMC11510342, “Synthesis, Characterization, Bioavailability and Antimicrobial Studies of Cefuroxime-Based Organic Salts and Ionic Liquids” (Pharmaceutics, 2024):

Columns and labels:
[1] = test system: Pseudomonas aeruginosa (ATCC 27853); assay: Antimicrobial activity, growth inhibition (OD 600 nm); format: cell-based; conditions: ATCC27853, 6 h, read-out: IC50 P. aeruginosa
[2] = test system: Escherichia coli (ATCC 25922); assay: as above; format: cell-based; conditions: ATCC25922, 6 h, read-out: IC50 E. coli
[3] = test system: Bacillus subtilis (ATCC 6633); assay: as above; format: cell-based; conditions: ATCC6633, 6 h, read-out: IC50 B. subtilis
[4] = test system: 3T3 murine fibroblasts; assay: Cytotoxicity on 3T3 cells (MTT assay); conditions: 24 h

CCCCCCCCCCCCCCCC[n+]1ccccc1.[Cl-] [[C16Py]Cl, reference compound]
IC50 [1]: 3.65 µM | IC50 [2]: 5.71 µM | IC50 [3]: 2.03 µM | Relative toxicity on 3T3 cells (comparison of IC50 values) ([4]; MTT): approximately two-times less toxic | IC50 ([4]; Mus musculus, Fibroblast, read-out: IC50 for toxicity on 3T3 murine fibroblasts): 30 µM
